{"source": "paper PMC6597547", "molecular_target": "T1, EXECUTER1 (EX1) fused to GFP (Arabidopsis thaliana) (UniProt Q93YW0)", "T1 sequence": "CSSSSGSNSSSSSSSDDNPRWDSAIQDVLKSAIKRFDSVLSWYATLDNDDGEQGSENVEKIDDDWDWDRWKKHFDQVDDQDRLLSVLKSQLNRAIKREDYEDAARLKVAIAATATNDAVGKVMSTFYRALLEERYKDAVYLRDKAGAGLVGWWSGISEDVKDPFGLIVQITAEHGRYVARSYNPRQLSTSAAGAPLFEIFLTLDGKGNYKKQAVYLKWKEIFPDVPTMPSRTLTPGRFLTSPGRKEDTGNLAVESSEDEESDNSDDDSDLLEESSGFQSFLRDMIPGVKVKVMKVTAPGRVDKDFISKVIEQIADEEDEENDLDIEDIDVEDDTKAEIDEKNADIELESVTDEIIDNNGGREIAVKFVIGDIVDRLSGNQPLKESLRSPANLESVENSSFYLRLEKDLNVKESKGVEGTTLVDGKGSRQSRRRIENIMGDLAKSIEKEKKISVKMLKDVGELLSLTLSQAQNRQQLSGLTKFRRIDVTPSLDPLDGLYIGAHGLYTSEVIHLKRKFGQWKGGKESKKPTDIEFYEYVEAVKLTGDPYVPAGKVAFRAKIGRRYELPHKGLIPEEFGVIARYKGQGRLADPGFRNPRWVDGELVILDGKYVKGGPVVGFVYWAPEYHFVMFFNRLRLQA", "test": "co-IP; EX1-GFP precipitated with GFP-Trap magnetic agarose beads from total protein of 5-day-old dark-grown (etioplasts) or continuous-light-grown (chloroplasts) seedlings; CoIP buffer 20 mM HEPES-KOH pH 7.4, 100 mM NaCl, 0.5% Triton X-100; room temperature 1.5-2 h; western blot with the indicated antibodies", "note": "No constants are given. Whether binding was seen depends on the method and setting. Binding seen in cells or lysates may run through a third protein. A result given as binding can be weak or reduced; the word gives no strength. Tags and fused reporters may be left off the sequences shown."}
{"substance": "light-dependent NADPH:protochlorophyllide oxidoreductase (POR) (enzyme)", "values": [{"measurement": "binding", "result": "binds"}]}
